Measured values taken from publication PMC12374962.

Amino acid sequences for entries named in this document (tags omitted). A change or cut given only in a name is not applied to a line headed by its entry.
UniProt P49023: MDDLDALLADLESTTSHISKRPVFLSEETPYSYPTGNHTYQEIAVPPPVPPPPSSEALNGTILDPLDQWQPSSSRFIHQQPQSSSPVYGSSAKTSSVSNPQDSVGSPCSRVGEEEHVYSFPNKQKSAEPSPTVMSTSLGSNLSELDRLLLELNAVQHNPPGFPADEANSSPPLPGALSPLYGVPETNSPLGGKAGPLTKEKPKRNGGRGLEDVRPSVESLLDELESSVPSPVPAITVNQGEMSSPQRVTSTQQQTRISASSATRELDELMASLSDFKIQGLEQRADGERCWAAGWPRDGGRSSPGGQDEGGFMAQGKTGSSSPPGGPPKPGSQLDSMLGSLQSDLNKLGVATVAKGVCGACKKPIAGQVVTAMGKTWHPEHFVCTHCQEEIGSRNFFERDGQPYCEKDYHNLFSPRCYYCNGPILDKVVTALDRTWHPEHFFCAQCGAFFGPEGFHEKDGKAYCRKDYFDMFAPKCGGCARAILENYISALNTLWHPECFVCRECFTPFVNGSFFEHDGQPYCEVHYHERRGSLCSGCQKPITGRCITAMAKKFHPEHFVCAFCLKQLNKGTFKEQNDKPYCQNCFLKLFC
UniProt P07339: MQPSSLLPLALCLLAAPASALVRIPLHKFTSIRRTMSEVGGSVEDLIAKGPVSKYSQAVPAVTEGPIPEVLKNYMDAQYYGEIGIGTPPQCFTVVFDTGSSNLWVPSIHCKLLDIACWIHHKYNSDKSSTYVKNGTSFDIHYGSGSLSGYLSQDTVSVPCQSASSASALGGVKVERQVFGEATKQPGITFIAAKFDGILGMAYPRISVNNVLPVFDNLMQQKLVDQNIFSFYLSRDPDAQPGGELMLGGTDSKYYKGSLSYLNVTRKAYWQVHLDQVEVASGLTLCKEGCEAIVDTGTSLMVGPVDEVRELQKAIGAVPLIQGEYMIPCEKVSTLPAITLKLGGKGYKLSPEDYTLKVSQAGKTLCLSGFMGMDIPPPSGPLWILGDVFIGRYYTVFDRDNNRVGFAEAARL

Columns and labels:
[1] = target: paxillin phosphorylated at tyrosine 118 (human (endogenous in LoVo and HCT116)) (UniProt P49023); experiment: co-IP; endogenous proteins in PDC lysates (IP lysis buffer with protease and phosphatase inhibitors); supernatant incubated with anti-paxillin or anti-Y118-paxillin antibody overnight at 4 °C, protein A/G agarose beads 2 h at 4 °C, normal mouse immunoglobulin as negative control, detection by western blot
[2] = target: paxillin (human (endogenous in LoVo and HCT116)) (UniProt P49023); experiment: as above

- binding [1]: binds
- binding [2]: binds
Substance: cathepsin D (from UniProt P07339) (enzyme)

Results are given in words; binding and its absence hold for the method and conditions named. Binding seen in cells or lysates may run through a third protein. A result given as binding can be weak or reduced; the word gives no strength.
